PubChem BioAssay AID1259405 | NCATS – 2018

- Test: 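Mouse-designed siRNAs used to find CHO productivity engineering targets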 (primary screen)
- System: Chinese hamster CHO-K1 ovary cells with stable secreted eGFP expression
- Reagent: single siRNA against mouse genes, 0.8 pmol siRNA per well (2 µl of 400 nM stock)
- Time to read-out: 3 days
- Read-out: 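Percent of the per-plate non-targeting control median for intracellular GFP per well by laser scanning cytometry and for cell viability by ATP luminescence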
- Scale: GFP, % of control: higher = more GFP per well, higher productivity; viability (ATP), % of control: higher = more viable cells (more ATP)
- Hit rule: 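Called active when intracellular GFP, relative to negative control, is at or above 120%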
Shown is a random part of about 50,000 reagents tested. About 4,000 of them (8%) count as active. 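Mouse siRNA library applied to hamster cells; one well for each siRNA.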 A number with no mark means an inactive call. The numbers tell different reagents against one gene apart.

Target gene	siRNA no.	GFP, % of control	viability (ATP), % of control
Aifm1	1	111	91.7
Aifm1	2	83.7	57.9
Cptp	1	103	72.3
Cptp	2	79.6	71.5
Cptp	3	83.8	90.8
Tex101	1	93.6	87.7
Tex101	2	68.7	98.5
Tex101	3	176 (active)	130
Tcl1	1	106	61.4
Tcl1	2	102	84.2
Tcl1	3	82.9	73.3
Dpp6	1	90.8	109
Dpp6	2	40.1	45.9
Dpp6	3	97.5	97.3
Dpp6	4	70.1	82.3
Dpp6	5	74.5	53
Dpp6	6	82.1	81.3
Gm5334	1	68.7	72.6
Gm5334	2	81.8	81.8
Gm5334	3	128 (active)	110
Tnfrsf17	1	76.3	110
Tnfrsf17	2	76.9	88.7
Tnfrsf17	3	113	75.3
S100g	1	101	142
S100g	2	70	69.8
Plekhg6	1	137 (active)	64.5
Plekhg6	2	98.7	78.8
Plekhg6	3	61.1	67
Cpa6	1	65.6	73.3
Cpa6	2	98.3	88.2
Cpa6	3	87.3	82.1
Slc6a6	1	82.4	83.4
Slc6a6	2	109	84.3
Slc6a6	3	93.9	68.3
Tex11	1	44	54.2
Tex11	2	73	89.8
Tex11	3	86.1	101
Paqr8	1	80.5	65.2
Paqr8	2	65.6	72.7
Paqr8	3	58.5	83.1
Fndc5	1	107	97.6
Fndc5	2	98.9	105
Fndc5	3	40.3	68.4
Pakap	1	96.1	72.2
Pakap	2	68.7	73
Pakap	3	39.1	41
Pakap	4	51.7	40
Pakap	5	57.1	37.1
Pakap	6	82.3	97.4
Plin1	1	63.8	79.3
Plin1	2	106	87.5
Plin1	3	127 (active)	179
Zfp521	1	59	52.6
Zfp521	2	55.3	65.2
Zfp521	3	75.7	88.7
Tbca	1	47.6	74.7
Tbca	2	76.7	112
Tbca	3	147 (active)	111
Cacnb1	1	56.3	60.7
Cacnb1	2	49	66.9
Cacnb1	3	70.7	92.2
Ms4a6c	1	87.6	73.8
Ms4a6c	2	73.4	72.8
Ms4a6c	3	57.4	90.8
Fam53a	1	92.9	67
Fam53a	2	44.9	73.1
Fam53a	3	101	66.5
Or10ag52	1	153 (active)	98.9
Or10ag52	2	73.4	79.1
Or10ag52	3	52.3	45.7
Nkrf	1	25.5	18.8
Nkrf	2	59.2	45.7
Nkrf	3	111	90.8
Usp10	1	54.2	81.6
Usp10	2	49.9	54
Usp10	3	59.2	60.6
Vmn1r188	1	55.1	75.9
Vmn1r188	2	65.1	61.4
Vmn1r188	3	68.4	88.1
Slc28a3	1	65.1	58.1
Slc28a3	2	76.2	95.3
Slc28a3	3	85.9	91.6
Or2ag19	1	63.7	37.9
Or2ag19	2	50.9	54.5
Or2ag19	3	67.9	54.8

A few values from the entries so far.
Value for Cpa6 #3 in “GFP, % of control”: 87.3
For “viability (ATP), % of control”, Zfp521 #3 is entered as 88.7
Vmn1r188 #1, GFP, % of control = 55.1
Under “GFP, % of control”, Dpp6 #6 reads 82.1
